Z-score data for 107 sequences are collected here from PubChem BioAssay AID1508600 (Functional Genomics Laboratory (NCATS/FGL), 2020).

The whole screen tested about 53,000 sequences, of which about 3,700 (7%) were called active.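 How the source made its calls: active means gene knockdowns whose robust z-score for IL-1 alpha signal is at least 2 or at most -2, so actives lie on both sides; inactive means the rest.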 This is one part of the list.

The assay in a line: Components of the Cytosolic LPS Sensing Pathway: Gene Identification via Genome-wide siRNA Screen.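 Further: robust z of the log signal after scaling to non-targeting control siRNA wells of the plate.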 The conditions noted are these: RAW264.7 macrophages, IL-1a HTRF, actives lie on both sides, screened at 100 nM (by protocol), cells primed 5 h with Pam3CSK4 first. The procedure, abridged: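 Supernatant IL-1a by HTRF from RAW264.7 cells primed with Pam3CSK4 (5 hours) and transfected with LipidA (24 hour) after 48h siRNA knockdown at 100 nM; cell viability checked with CellTiter-Glo.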
On to GCUCUGUCCAUUCCAUAAGTT against Crispld1, for which the z-score is inactive: 0.27.
Consider GGAAAACCAUGAAGCCAUGTT against Dnase1l3, for which the z-score is inactive: 0.69.
Under GCAGAAUAGCUGAUGACAGTT against Galnt15 stands inactive: -0.155; under GCAACGGAGGGUCAUUUCATT against Wipf2, active: 2.54; under GGAGAGUAACAAUUAUGAATT against Pcdha9, inactive: 0.983.
In the case of GGCAACAAAAAAAUCCCAATT against Cd160 it was inactive: -0.647; in that of GCUAGUUUGACAGAGGCCUTT against Prelp, inactive: -0.404.
As to “GGAAGUAGGAGAGGAAAGUTT against D930020B18Rik”, the z-score is inactive: 0.766.
Under GGGCAUGUAUCCGAUUAGATT against Tprgl stands inactive: 0.171; under GGACUCCAAACCUAAGUGATT against Rpl39l, inactive: -0.464; under GGGAAAGAAUGGUAUUGUATT against Rmnd5a, inactive: -0.0117.
On to “CCAUAUGUAAAGUGAAACATT against A530013C23Rik”, for which the z-score is inactive: -0.346.
In the case of GGCCAUCAGAGUCAACUGUTT against Immt it was inactive: -0.285; in that of GGUCACUGCUAAAGCCUGATT against Stoml3, inactive: 0.864; in that of GGUAUGUUUUUCUCACAAGTT against Ehd4, inactive: 0.417.
Under GGCUGUUUUUACCCUACUUTT against Vmn1r72 stands inactive: -0.441; under GUAAACCACUGAAAAACCATT against Siah1b, inactive: 0.0622; under GGACAACUCCCAUAGCCAUTT against Sin3b, inactive: -0.338.
Under GGCUCGGGUCUUUAACGAATT against Copg1 stands inactive: 0.559; under GGCUACAACCUGAAAGAUGTT against Ppp2r2b, inactive: -1.11.
On to GGCUGUAUACCAAUAAAAATT against B4galt6, for which the z-score is inactive: -0.855.
In the case of CGCGCAUCCAGGUUAUCUUTT against Slc7a10 it was inactive: 0.596.
Consider GGAGGAUGUCUUACCAUGGTT against Bhlha9, for which the z-score was inactive: -0.417.
Under GGAAGUGGGCAGCAUCAUUTT against Pcbp4 stands inactive: 0.73.
In the case of GGAGACUGUGUUUACAGUATT against Olfr347 it was inactive: 0.686; in that of GGCUACUGUAAGAUUUCUATT against Mgat4f, inactive: 1.98; in that of GGGUCUAUGAGCUAAUUAUTT against Psmd5, inactive: 1.12.
With GCAUUACUAUGAGCGGGACTT against Pygb, the z-score is inactive: 0.307.
In the case of GGAAAAGAAGCCAAUUCCUTT against Smpx it was inactive: 0.92; in that of CCUGGUUAGAGAAUGGAAATT against Sirpb1a, inactive: -0.802.
Under GCAUGUUCCAUGGAUUUUATT against Slfn10-ps stands inactive: -1.68.
In the case of GGUCAAUGCUGUUUUUGUUTT against Mxi1 it was active: 2.41; in that of GCACGUUGAACAAUGAAGATT against Unc13a, inactive: -0.229; in that of GGUUCAAGUUCGCAUACAGTT against Rnf111, inactive: 1.95.
Turning to AUCUCGUCUUUGGUUAAUATT against Vmn1r64, the z-score was inactive: -0.95.
Under GGAUGUUAAACUACAUUGATT against Ropn1 stands inactive: -0.051; under GGAAAAGAAGAAGCAGAUUTT against Incenp, inactive: -1.11; under GCUGCUUUAGCUUAGUUUUTT against Vwa7, inactive: 0.457.
Under GGUCUUCAGACCAGAAACATT against Hsd3b2 stands active: -3.19.
Under GCCAUUACCCGGUAUAUGATT against Sesn1 stands inactive: -1.96.
In the case of GCCUAUAAAACCUUUGCCUTT against Loxl2, the z-score is inactive: -0.918.
Under CCCUGUAAUCAGUAGAAGATT against Afap1l2 stands inactive: -0.752; under CCUUUUGAAUGAUAGGGUGTT against Tbcd, inactive: 0.142; under GCUGAUGGCACUAAACACUTT against Glb1l2, inactive: 1.18.
On to GGCUUCAAAACAUUUUCAGTT against Kansl1l, for which the z-score was active: 2.81.
In the case of GCCUCACUUGAUGAAAUGGTT against Sccpdh it was active: -2.13.
In the case of GGAUCUACGCAAGCAAGCATT against Oxnad1 it was active: 2.12; in that of GCUUCUAUGGCAGGAUAAATT against Cd28, inactive: -1.07; in that of CCUACUGACGACUCUUAUATT against Vmn2r10, inactive: -0.211.
In the case of GGAGCAACUAAUGAAGAAATT against Dnajc22 it was inactive: -0.064.
GGUACUGGAGAAAGUCAAGTT against Pi4kb: the z-score was inactive: 0.46.
As for CCAUUUAAGGUCAUCUGCATT against Nxph2, the z-score is inactive: -0.419.
As for CCCACGAGAAGUUUGAAAGTT against Ccdc171, the z-score is inactive: -0.0115.
In the case of GCACAGAGGAUGUACGUUATT against Cstad it was inactive: -0.665; in that of GGAGACGAGAGGAUCCUCUTT against Chga, inactive: -1.56; in that of GGCUCUUUGUUAAAUACCCTT against Fitm2, inactive: 1.38.
Under GGUACCCACUAGAGGAUCATT against Madd stands active: -2.61; under GGACACAGGCCUAUAUUUUTT against Fam187a, inactive: 0.647.
As for GGCUGGUGAAAGUCAAGGUTT against Arid4a, the z-score was inactive: 0.503.
In the case of GCGGGUUAACUUGUUUGGUTT against Zcwpw1 it was inactive: 0.525; in that of GGAAAAGAGAAGAAGGCACTT against Taf6, inactive: 0.654; in that of GGACGUAGAUCAUUUCAAUTT against Afm, inactive: -0.738.
Turning to GCUAGUUGGGAUACUCAAGTT against Mpp6, the z-score was inactive: -1.28.
Under CCUGAAGUGGAGAUUCAACTT against Kcnj6 stands inactive: -1.27; under GCCACUUUAGUAUGGAAUGTT against Nxt1, inactive: 0.822; under GGUUGUAACUUGUAAGGCATT against Rnf144b, inactive: 0.123.
In the case of GGUACCUAUUGAGAUCAAGTT against Acot8 it was inactive: 0.807; in that of GCCCGUAGAUAUGAUCUUCTT against Vmn1r87, inactive: -0.207.
In the case of GCGAUUCGUCUUCGAGUUCTT against Fam161a it was inactive: 0.483.
CCCGACACCAGUGGUAAAATT against Lgsn: the z-score is inactive: -0.865.
Under CCAGGAUCCAAAGAGUAUUTT against Olfr521 stands inactive: -1.49.
Under ACAGGAGUCCAUAGCCGUCTT against Aspscr1 stands inactive: -1.47; under GGAAGAGAAUAAAACCUCATT against Ptpra, inactive: -0.781; under GCUGAUGGUGUAUAACUCGTT against Gorasp1, inactive: -0.124.
In the case of GCGAAGUUAAAUCUCAUCATT against Tesmin it was inactive: 0.494.
GGACUUCUUCUAUUUCAUATT against Fam20a: the z-score is inactive: -0.986.
In the case of GGCUGAAAUCUCAAUGGCUTT against Frem1 it was inactive: -0.426.
In the case of CGACUUGAUUUCAAAACAUTT against Fbxl13 it was inactive: -0.981.
In the case of GGCCGAGGUUUUGUUCUUUTT against Polr2g it was inactive: -1.99; in that of GGAAGUGUUCAAACCAGAGTT against Smg5, inactive: 0.93; in that of GGAUCCUAGGAUAGAAAAUTT against Asgr2, inactive: -0.831.
On to GGGAGACAAGUUCAUCAAATT against Gtf2e1, for which the z-score was inactive: 0.308.
Under GGAAUGUUUCUUUAUCACATT against Slc35e4 stands inactive: -0.837.
In the case of CCUAUAGCAGUGGUUUUCATT against Ece2 it was active: 2.22; in that of AAGCUGAGAACAGUCGAAGTT against Vasp, inactive: -0.319; in that of “GGAAGAGACAAAGAGUACATT against 4933402J07Rik”, inactive: -0.373.
In the case of GGUACAUUGGCAUUGUGAATT against Hnrnpf it was inactive: 0.525; in that of GGAACGUACAGGAUAAUCUTT against Krt79, active: 4.28; in that of CCUAUGAAACCCAUCAUUATT against Farp2, inactive: 1.06.
Regarding CGUGGUACACUGAAGACUUTT against Mmp1a, the z-score is active: 2.3.
In the case of CCAUGCUGAUUGCUCCGACTT against Cass4 it was inactive: 1.46; in that of GCAUAUUCAGCAACAGGUATT against Trim24, inactive: 0.0934.
In the case of CGGUACGAGAUGCAAAAAATT against Prkca it was inactive: -0.749; in that of GGAAUACGUAUACUUCAGCTT against Dipk1c, inactive: 0.495; in that of GCAGCAUAAUUGCUUGCUATT against Pde8b, inactive: 0.504.
Under GGAUAAGAUAGUGAAAGAATT against Uba2 stands inactive: 0.00206.
Regarding GCUACCACGAAUUUAUAGATT against Nlrp9a, the z-score is inactive: -0.896.
In the case of GGCAAUAAUAAAUAGCACCTT against Homer1 it was inactive: 0.8.
Turning to GUUCCACCAGAUUUUCUAATT against Vmn1r28, the z-score was active: 2.6.
In the case of GCUGCUCAGUUUCUUCCAATT against H4c9 it was active: 2.08.
Take GCCAAUCUCAAGAUGAAGCTT against Col26a1: the z-score is inactive: 0.229.
Under GGAAAAACGAUACUUGAUUTT against Gria3 stands inactive: -0.751.
In the case of GCACACCUACCACAACAUGTT against S100a11 it was inactive: 1.28; in that of CGAAGUGUUGGGAAGAUUATT against Tmprss11f, inactive: -0.412; in that of CCUACCGUUACCUAAGUGATT against Kcnj5, inactive: -1.15.
Under GGGAGAUUGAGAACUUUGCTT against Gpx7 stands inactive: -0.269.
For the sequence GGUUGCAUGGCACAAGUCUTT against Olfr1213, the z-score is inactive: -0.34.
